In patent US10441669B2, “Multifunctional chelators, complexes, and compositions thereof, and methods of using same” (ILLINOIS INSTITUTE OF TECHNOLOGY, priority 2013, dated 2019):
Several values for one entry are separate records, joined by “and”; a condition that tells them apart may be missing. Equal entries are not always repeated.

Columns and labels:
Assay type in all cases: physicochemical
[1] = Radiolabeling efficiency of 3p-C chelators with 90Y; settings: ITLC
[2] = Radiolabeling efficiency of 3p-C chelators with 177Lu; settings: ITLC
[3] = Radiolabeling efficiency of bimodal chelators with 177Lu; settings: pH 5.5, RT, ITLC
[4] = Maximum specific activity of chelators A-F with 64Cu; settings: 0.1 M NH4OAc, pH 5.5, 37° C., 1 h
[5] = Radiolabeling kinetics of chelators A-F with 64Cu; settings: 0.25M NH4OAc, pH 5.5, RT, ITLC
[6] = Radiolabeling of pyridyl-containing chelators with 64Cu; settings: RT
[7] = Radiolabeling efficiency of pyridyl-based chelators with 177Lu; settings: RT
[8] = Radiolabeling efficiency of 5p-C-NETA and 5p-C-NETA-RGD with 90Y; settings: RT, 0.25M NH4OAc, pH 5.5, ITLC
[9] = Radiolabeling efficiency of 5p-C-NETA and 5p-C-NETA-RGD with 177Lu; settings: RT, 0.25M NH4OAc, pH 5.5, ITLC

O=C(O)CN1CCN(CC(=O)O)CCN(C(CCCc2ccc([N+](=O)[O-])cc2)C(=O)O)CC1 (stereo not shown) [Chelator 3p-C-NOTA, 2-[4,7-bis(carboxymethyl)-1,4,7-triazonan-1-yl]-5-(4-nitrophenyl)pentanoic acid]
Radiolabeling efficiency (%) ([1]; pH 5.5, RT, 1 min): 10.3 ± 0.6% | Radiolabeling efficiency (%) ([1]; pH 5.5, RT, 10 min): 50.8 ± 1.8% | Radiolabeling efficiency (%) ([1]; pH 5.5, RT, 20 min): 73.9 ± 0.6% | Radiolabeling efficiency (%) ([1]; pH 5.5, RT, 30 min): 82.7 ± 0.4% | Radiolabeling efficiency (%) ([1]; pH 5.5, RT, 60 min): 69% and 89.3 ± 0.1% | Radiolabeling efficiency (%) ([2]; pH 5.5, RT, 1 min): 17.5 ± 0.5% | Radiolabeling efficiency (%) ([2]; pH 5.5, RT, 10 min): 81.3 ± 0.2% | Radiolabeling efficiency (%) ([2]; pH 5.5, RT, 20 min): 95.0 ± 0.2% | Radiolabeling efficiency (%) ([2]; pH 5.5, RT, 30 min): 99.1 ± 0.4%

O=C(O)CN(CCN1CCN(CCN(CC(=O)O)CC(=O)O)CCN(CC(CCCc2ccc([N+](=O)[O-])cc2)N(CC(=O)O)CC(=O)O)CC1)CC(=O)O (stereo not shown) [Chelator 2, 2-{[2-(4-{2-[bis(carboxymethyl)amino]-5-(4-nitrophenyl)pentyl}-7-{2-[bis(carboxy-methyl)amino]ethyl}-1,4,7-triazonan-1-yl)ethyl](carboxymethyl)amino}acetic acid]
Radiolabeling efficiency (%) ([3]; 1 min): 81.6 ± 0.35% | Radiolabeling efficiency (%) ([3]; 10 min): 99.4 ± 0.07% | Radiolabeling efficiency (%) ([3]; 30 min): 99.8 ± 0.14% | Radiolabeling efficiency (%) ([3]; 60 min): 99.8 ± 0.14%

O=C(O)CN1CCN(CC(=O)O)CCN(CC(CCCc2ccc([N+](=O)[O-])cc2)N(CC(=O)O)CC(=O)O)CCN(CC(=O)O)CC1 (stereo not shown) [Chelator 3p-C-DEPA, reference compound]
Radiolabeling efficiency (%) ([1]; pH 5.5, RT, 1 min): 89% and 89.3 ± 2.8% | Radiolabeling efficiency (%) ([1]; pH 5.5, RT, 10 min): 96.8 ± 0.5% | Radiolabeling efficiency (%) ([1]; pH 5.5, RT, 20 min): 98.0 ± 0.9% | Radiolabeling efficiency (%) ([1]; pH 5.5, RT, 30 min): 97.9 ± 0.2% | Radiolabeling efficiency (%) ([1]; pH 5.5, RT, 60 min): 98.5 ± 0.2% | Radiolabeling efficiency (%) ([2]; pH 5.5, RT, 1 min): 94% and 93.9 ± 1.3% | Radiolabeling efficiency (%) ([2]; pH 5.5, RT, 10 min): 98.7 ± 0.2% | Radiolabeling efficiency (%) ([2]; pH 5.5, RT, 20 min): 99.2 ± 0.3% | Radiolabeling efficiency (%) ([2]; pH 5.5, RT, 30 min): 99.4 ± 0.1% | Radiolabeling efficiency (%) ([2]; pH 5.5, RT, 60 min): 99.3 ± 0.2%

O=C(O)CN1CCN(CC(=O)O)CCN(CC(O)CCc2ccc([N+](=O)[O-])cc2)CC1 (stereo not shown) [Chelator D, 2-[4-(carboxymethyl)-7-[2-hydroxy-4-(4-nitrophenyl)butyl]-1,4,7-triazonan-1-yl]acetic acid]
maximum specific activity [4]: 1.18 Ci/μmol | Bound complex (%), radiolabeling efficiency ([5]; Time (h) 1): 99.0 ± 0.0% | Bound complex (%), radiolabeling efficiency ([5]; Time (h) 10): 99.6 ± 0.2% | Bound complex (%), radiolabeling efficiency ([5]; Time (h) 30): 99.5 ± 0.4%

O=C(O)CNC(CCCc1ccc([N+](=O)[O-])cc1)CN1CCN(CC(=O)O)CCN(CC(=O)O)CC1 (stereo not shown) [Chelator 3p-C-NE3TA, 2-({1-[4,7-bis(carboxymethyl)-1,4,7-triazonan-1-yl]-5-(4-nitrophenyl)pentan-2-yl}amino)acetic acid]
Radiolabeling efficiency (%) ([1]; pH 5.5, RT, 1 min): 3.1 ± 0.28% | Radiolabeling efficiency (%) ([1]; pH 5.5, RT, 10 min): 22.5 ± 0.28% | Radiolabeling efficiency (%) ([1]; pH 5.5, RT, 20 min): 37.6 ± 0.64% | Radiolabeling efficiency (%) ([1]; pH 5.5, RT, 30 min): 49.1 ± 1.6% | Radiolabeling efficiency (%) ([1]; pH 5.5, RT, 60 min): 84% and 68.7 ± 3.4% | Radiolabeling efficiency (%) ([2]; pH 5.5, RT, 1 min): 6.7 ± 0.1% | Radiolabeling efficiency (%) ([2]; pH 5.5, RT, 10 min): 36.6 ± 0.4% | Radiolabeling efficiency (%) ([2]; pH 5.5, RT, 20 min): 63.2 ± 0.8% | Radiolabeling efficiency (%) ([2]; pH 5.5, RT, 30 min): 78.1 ± 1.1%

O=C(O)CNC(CCCc1ccc([N+](=O)[O-])cc1)CN1CCN(CC(=O)O)CCN(CC(=O)O)CCN(CC(=O)O)CC1 (stereo not shown) [Chelator 3p-C-DETA, 2-{[5-(4-nitrophenyl)-1-[4,7,10-tris(carboxymethyl)-1,4,7,10-tetraazacyclododecan-1-yl]pentan-2-yl]amino}acetic acid]
Radiolabeling efficiency (%) ([1]; pH 5.5, RT, 1 min): 7% | Radiolabeling efficiency (%) ([1]; pH 7, RT, 1 min): > 85% and 88.4 ± 1.9% | Radiolabeling efficiency (%) ([1]; pH 7, RT, 10 min): > 99% and 99.2 ± 0.58% | Radiolabeling efficiency (%) ([1]; pH 7, RT, 20 min): 99.3 ± 0.61% | Radiolabeling efficiency (%) ([1]; pH 7, RT, 30 min): 99.2 ± 0.72% | Radiolabeling efficiency (%) ([1]; pH 7, RT, 60 min): 99.5 ± 0.49% | Radiolabeling efficiency (%) ([2]; pH 5.5, RT, 1 min): 21% | Radiolabeling efficiency (%) ([2]; pH 7, RT, 1 min): > 85% and 85.2 ± 0.7% | Radiolabeling efficiency (%) ([2]; pH 7, RT, 10 min): > 99% and 99.8 ± 0.3% | Radiolabeling efficiency (%) ([2]; pH 7, RT, 20 min): 99.8 ± 0.1% | Radiolabeling efficiency (%) ([2]; pH 7, RT, 30 min): 99.9 ± 0.1% | Radiolabeling efficiency (%) ([2]; pH 7, RT, 60 min): 100.0 ± 0.1%

O=C(O)CN1CCN(CCN(CC(=O)O)Cc2ccccn2)CCN(CC(=O)O)CC1 [Chelator 4]
Labeling Efficiency (%) ([6]; pH 5.5, 1 min): 99.9 ± 0.0% | Labeling Efficiency (%) ([6]; pH 5.5, 10 min): 99.9 ± 0.0% | Labeling Efficiency (%) ([6]; pH 5.5, 30 min): 99.9 ± 0.07% | Lu-177 Labeling Efficiency (%) ([7]; pH 5.5, 1 min): 38.4 ± 2.4% | Lu-177 Labeling Efficiency (%) ([7]; pH 5.5, 5 min): 94.8 ± 0.35% | Lu-177 Labeling Efficiency (%) ([7]; pH 5.5, 30 min): 99.5 ± 0.35% | Lu-177 Labeling Efficiency (%) ([7]; pH 5.5, 60 min): 99.6 ± 0.28%

O=C(O)CN1CCN(CC(=O)O)CCN(Cc2cccs2)CC1 [Chelator F, 2-[4-(carboxymethyl)-7-(thiophen-2-ylmethyl)-1,4,7-triazonan-1-yl]acetic acid]
maximum specific activity [4]: 1.82 Ci/μmol | Bound complex (%), radiolabeling efficiency ([5]; Time (h) 1): 99.8 ± 0.2% | Bound complex (%), radiolabeling efficiency ([5]; Time (h) 10): 99.9 ± 0.2% | Bound complex (%), radiolabeling efficiency ([5]; Time (h) 30): 99.8 ± 0.2%

O=C(O)CN1CCN(CC(=O)O)CCN(Cc2ccccn2)CC1 [Chelator E, 2-[4-(carboxymethyl)-7-(pyridin-2-ylmethyl)-1,4,7-triazonan-1-yl]acetic acid]
maximum specific activity [4]: 14.69 Ci/μmol | Bound complex (%), radiolabeling efficiency ([5]; Time (h) 1): 99.9 ± 0.1% | Bound complex (%), radiolabeling efficiency ([5]; Time (h) 10): 99.9 ± 0.1% | Bound complex (%), radiolabeling efficiency ([5]; Time (h) 30): 99.9 ± 0.1%

O=C(O)CN1CCN(CC(=O)O)CCN(CC(=O)CCc2ccc([N+](=O)[O-])cc2)CC1 [Chelator C, 2-[4-(carboxymethyl)-7-[4-(4-nitrophenyl)-2-oxobutyl]-1,4,7-triazonan-1-yl]acetic acid]
maximum specific activity [4]: 27.45 Ci/μmol | Bound complex (%), radiolabeling efficiency ([5]; Time (h) 1): 99.3 ± 0.3% | Bound complex (%), radiolabeling efficiency ([5]; Time (h) 10): 99.2 ± 0.9% | Bound complex (%), radiolabeling efficiency ([5]; Time (h) 30): 99.5 ± 0.5%

NCCCNC(=O)c1ccc(CN(CCN2CCN(CC(=O)O)CCN(CC(=O)O)CC2)CC(=O)O)nc1 [Chelator 10]
Labeling Efficiency (%) ([6]; pH 5.5, 1 min): 99.8 ± 0.14% | Labeling Efficiency (%) ([6]; pH 5.5, 10 min): 100 ± 0.0% | Labeling Efficiency (%) ([6]; pH 5.5, 30 min): 99.9 ± 0.14% | Lu-177 Labeling Efficiency (%) ([7]; pH 5.5, 1 min): 15.6 ± 1.9% | Lu-177 Labeling Efficiency (%) ([7]; pH 5.5, 10 min): 76.4 ± 0.14% | Lu-177 Labeling Efficiency (%) ([7]; pH 5.5, 30 min): 97.9 ± 0.42% | Lu-177 Labeling Efficiency (%) ([7]; pH 5.5, 60 min): 99.5 ± 0.35%

O=C(O)CN1CCN(CCCc2ccc([N+](=O)[O-])cc2)CCN(CC(=O)O)CC1 [Chelator B, 2-[4-(carboxymethyl)-7-[3-(4-nitrophenyl)propyl]-1,4,7-triazonan-1-yl]acetic acid]
maximum specific activity [4]: 51.73 Ci/μmol | Bound complex (%), radiolabeling efficiency ([5]; Time (h) 1): 99.7 ± 0.1% | Bound complex (%), radiolabeling efficiency ([5]; Time (h) 10): 99.6 ± 0.4% | Bound complex (%), radiolabeling efficiency ([5]; Time (h) 30): 100 ± 0.0%

O=C(O)CN1CCN(CC(=O)O)CCN(C(CCc2ccc([N+](=O)[O-])cc2)C(=O)O)CC1 (stereo not shown) [Chelator A, 2-[4,7-bis(carboxymethyl)-1,4,7-triazonan-1-yl]-4-(4-nitrophenyl)butanoic acid, reference compound]
maximum specific activity [4]: 4.87 Ci/μmol | Bound complex (%), radiolabeling efficiency ([5]; Time (h) 1): 99.8 ± 0.1% | Bound complex (%), radiolabeling efficiency ([5]; Time (h) 10): 99.8 ± 0.2% | Bound complex (%), radiolabeling efficiency ([5]; Time (h) 30): 99.6 ± 0.3%

O=C(O)CN1CCN(CC(=O)O)CCN(CC(CCCCCc2ccc([N+](=O)[O-])cc2)N(CC(=O)O)CC(=O)O)CC1 (stereo not shown) [Chelator 5p-C-NETA, 2-({1-[4,7-bis(carboxymethyl)-1,4,7-triazonan-1-yl]-7-(4-nitrophenyl)heptan-2-yl}(carboxy-methyl)amino)acetic acid]
Radiolabeling efficiency (%) ([8]; 1 min): 99.3 ± 0.1% | Radiolabeling efficiency (%) ([8]; 5 min): 99.7 ± 0.3% | Radiolabeling efficiency (%) ([8]; 10 min): 99.8 ± 0.1% | Radiolabeling efficiency (%) ([8]; 20 min): 99.8 ± 0.1% | Radiolabeling efficiency (%) ([8]; 30 min): 99.9 ± 0.1% | Radiolabeling efficiency (%) ([8]; 60 min): 100.0 ± 0.0% | Radiolabeling efficiency (%) ([9]; 1 min): 99.6 ± 0.1% | Radiolabeling efficiency (%) ([9]; 5 min): 99.7 ± 0.3% | Radiolabeling efficiency (%) ([9]; 10 min): 99.6 ± 0.1% | Radiolabeling efficiency (%) ([9]; 20 min): 99.7 ± 0.1% | Radiolabeling efficiency (%) ([9]; 30 min): 99.8 ± 0.2% | Radiolabeling efficiency (%) ([9]; 60 min): 99.9 ± 0.1%
